# According to the odorant receptor screen of Mainland et al. (2015):
# “And” between values parts separate entries of the source, which are not always exact repeats. Equal values may be shown once. Some of the results follow. Each value is one well over the wells without odorant, computed here; the data are noisy.
# Columns and labels:
# Assay in all cases: odorant receptor activation (CRE luciferase / Renilla) (fold of no-odor wells); higher = more activation
# Conditions in all cases: 100 µM
# OR8G5 clone 1493 = test system: OR8G5 clone 1493
# OR8H1 clone 1388 = test system: OR8H1 clone 1388
# [1] = test system: OR8H2 A105V/I154M/V158L/Y169C/D170Y/Y259H/V284M clone 1214
# OR8H3 P137S clone 1215 = test system: OR8H3 P137S clone 1215
# OR8I2 clone 1213 = test system: OR8I2 clone 1213
# OR8J1 Y120C clone 1500 = test system: OR8J1 Y120C clone 1500
# OR8J3 clone 1149 = test system: OR8J3 clone 1149
# OR8K1 clone 1431 = test system: OR8K1 clone 1431
# OR8K3 L122R clone 1195 = test system: OR8K3 L122R clone 1195
# OR8K5 clone 1150 = test system: OR8K5 clone 1150
# [2] = test system: OR8S1 M48V/L82P/R128C/A198T clone 1279
# OR8U1 clone 1242 = test system: OR8U1 clone 1242
# OR8U8 clone 1499 = test system: OR8U8 clone 1499
# OR8U9 clone 1439 = test system: OR8U9 clone 1439
# OR9A2 clone 1080 = test system: OR9A2 clone 1080
# OR9A4 clone 1081 = test system: OR9A4 clone 1081
# OR9G1 clone 1111 = test system: OR9G1 clone 1111
# OR9G4 N191D clone 1109 = test system: OR9G4 N191D clone 1109
# OR9G9 clone 1170 = test system: OR9G9 clone 1170
# OR9I1 clone 1180 = test system: OR9I1 clone 1180
Compound,odorant receptor activation (OR8G5 clone 1493),odorant receptor activation (OR8H1 clone 1388),odorant receptor activation [1],odorant receptor activation (OR8H3 P137S clone 1215),odorant receptor activation (OR8I2 clone 1213),odorant receptor activation (OR8J1 Y120C clone 1500),odorant receptor activation (OR8J3 clone 1149),odorant receptor activation (OR8K1 clone 1431),odorant receptor activation (OR8K3 L122R clone 1195),odorant receptor activation (OR8K5 clone 1150),odorant receptor activation [2],odorant receptor activation (OR8U1 clone 1242),odorant receptor activation (OR8U8 clone 1499),odorant receptor activation (OR8U9 clone 1439),odorant receptor activation (OR9A2 clone 1080),odorant receptor activation (OR9A4 clone 1081),odorant receptor activation (OR9G1 clone 1111),odorant receptor activation (OR9G4 N191D clone 1109),odorant receptor activation (OR9G9 clone 1170),odorant receptor activation (OR9I1 clone 1180)
"CC1CCC(C(C)C)C(O)C1 (single isomer, unassigned; (-)) [(-)-menthol]",3.54,1.4,0.875,0.941,0.949,3.7,1.17,0.883,2.17,1.12,0.524,0.692,4.18,0.484,9.63,4.05,31.5,5.31,1.27,1.29
CC12CCC(C1)C(C)(C)C2=O (stereo not given) [fenchone],0.95,0.795,1.13,0.957,1.18,1.43,0.927,0.998,1.4,0.891,1.16,1.07,1.15,0.967,1.21,1.12,1.23,1.18,1.13,0.971
CC(=O)c1ccccc1 [acetophenone],1.14 and 0.654,1.09,1.15,1.27,1.26,1 and 0.712,1.34,1.14,0.88,1.13,0.747,0.814,1.19 and 0.896,1.12,0.499,1.09,1.33,0.868,0.891,1.33
C=CCSCC=C [diallyl sulfide],1.1,0.956,1.27,1.07,0.949,1.45,0.968,1.36,1,1.1,0.97,1,1.11,1.14,0.915,1.02,1.33,1.1,1.06,0.989
c1ccc(Oc2ccccc2)cc1 [diphenyl ether],0.78,0.84,1.1,0.9,0.886,1.35,0.867,0.996,0.97,0.869,1.03,1.16,1.21,0.954,0.901,0.934,1.2,0.959,1.04,0.937
CCCCCCCCC=O [nonyl aldehyde],0.814,1.05,1.19,1.12,1.23,0.881,0.947,1.15,1.05,0.844,1.01,1.24,0.911,1.1,1.32,1.01,0.756,1.33,0.928,0.741
C=CC(C)(O)CCC=C(C)C (stereo not given) [linalool],0.918,0.893,1.23,1.05,1.33,1.05,1.25,0.961,1.1,0.995,0.886,1.27,1.49,1.09,1.13,1.25,1.05,1.29,1.02,0.996
O=CCc1ccccc1 [phenyl acetaldehyde],0.947,1.63,1.26,1.47,1.04,1.09,1.92,1.4,0.986,1.08,1.22,1.31,0.965,1.31,1.39,1.06,0.85,1.43,1.27,0.951
CC/C=C\CCO [cis-3-hexen-1-ol],0.834,0.222,0.909,0.977,0.847,1.27,1.16,0.136,1.06,0.839,0.879,1.22,0.914,0.129,0.985,0.875,1.21,0.995,0.891,0.987
O=C1CCCCC1 [Cyclohexanone],1.08 and 0.811,1.25,0.982,0.771,0.89,1.12 and 0.98,0.711,0.731,0.796,0.528,0.369,0.229,0.89 and 0.912,0.778,1.16,1.41,2.37,1.75,0.518,0.585
CCCCCCOC(=O)CCC [hexyl butyrate],1.13 and 0.792,0.758,1.46,0.967,1.21,0.983 and 0.613,1.09,0.892,0.921,0.928,1.01 and 0.862,0.956 and 1.51,0.711 and 1.02,0.923,0.391,0.754,0.819,0.395,0.762,0.991
C=CCc1ccc(OC(C)=O)c(OC)c1 [eugenol acetate],1.27,1.51,1.8,1.49,1.48,1.75,1.51,1.73,1.85,1.55,1.63,1.57,1.33,1.71,2.07,1.5,1.84,1.64,2,1.62
CCCCCC(C)=O [2-heptanone],1.35 and 0.545,1.35,1.21,1.03,1.15,0.907 and 0.766,1.63,1.13,0.84,1.15,4.83,0.528,1.08 and 0.735,1.13,0.513,0.718,1.32,0.643,1.06,1.23
CC1=NC(C)SC1C (stereo not given),1.14 and 0.922,1.48,1,1.06,1.15,1.18 and 1.06,0.887,1.22,0.96,0.799,0.538,0.378,1.27 and 1.04,1.09,0.447,1.3,1.19,0.889,0.978,0.857
CC(C)=CCCC(C)=CC=O [citral],0.901,0.261,0.925,1.03,0.889,1.41,1.27,0.164,1.28,1.11,0.998,1.25,1.09,0.155,1.03,0.924,1.46,1.19,1.09,1.21
CC(C)C=O [isobutyraldehyde],1.28 and 1.52,0.77,1.03,0.991,1.34,0.968 and 0.955,0.959,0.964,0.909,1.11,0.971 and 1.08,1.18 and 1.36,0.527 and 1.58,0.842,0.652,8.35,1.77,0.387,1.22,1.04
C=CCc1ccc(OC)c(OC)c1 [eugenol methyl ether],1.11,1.45,1.77,1.49,1.3,1.43,1.52,1.37,1.46,1.38,1.85,1.68,1.14,1.41,1.78,1.38,1.56,1.45,1.56,1.46
CC(C)CC(=O)O [isovaleric acid],1.12,1.02,1.1,1.46,1.35,0.915,1.12,0.829,1.12,1.03,0.784,1.13,1.14,1.04,1.39,1.07,0.958,1.21,1.15,1.19
CCCCO [1-butanol],1.18,1.49,0.813,0.885,0.917,0.974,1.03,0.725,0.719,1.02,1.05,1.12,1.47,0.568,7.89,3.25,23.5,4.56,1.17,1.4
COC(=O)c1ccccc1 [methyl benzoate],1.34 and 0.853,1.11,0.976,0.942,0.931,1.09 and 1.04,1.18,0.981,0.923,1.17,0.542,0.242,0.981 and 0.971,0.771,1.07,1.62,1.88,0.872,0.851,0.848
CC(=O)C(C)=O [diacetyl],1.14,1.21,1.17,1.16,1.12,1.42,0.979,1.38,1.03,1.15,1.17,1.36,1.23,1.23,1.03,1.05,1.26,1,1.06,0.935
CCCCCCCCCCC=O [undecanal],0.779,1.12,1.04,1.01,1.01,1.21,1.1,1.21,1.37,1.14,0.949,1.13,0.911,1.07,1.21,1.17,0.787,1.13,1.1,0.908
O=C1CCCCCCCCCCCC(=O)OCCO1 [ethylene brassylate],1.18,1.55,1.56,1.19,1.63,1.2,1.44,1.67,2.1,1.75,1.46,1.41,1.19,1.49,1.83,1.38,1.62,1.36,2.26,1.46
CC(C)C(=O)O [isobutyric acid],1.03 and 1.16,0.67,1.37,1.06,1.35,0.919 and 0.931,0.956,0.761,0.884,1.11,0.84 and 0.909,1.61 and 1.51,0.659 and 1.18,0.759,0.551,1.16,1.84,0.49,1.06,0.845
CCCC(=O)O [butyric acid],1,0.206,1.07,1.07,0.879,1.47,1.13,0.129,1.24,0.874,0.764,1.23,1.05,0.133,1.16,0.95,1.15,1.06,1.11,0.934
CC12C=CCC1C1CCC3CC(=O)CCC3(C)C1CC2 (stereo not given) [androstenone],1.09,1.38,5.91,4.4,5.03,0.776,10.1,0.731,4.21,4.49,0.935,1.32,1.19,0.823,5.12,1.59,20.8,2.8,5.63,6.31
CCCCCCCC=CC=O [2-decenal],1.83,2.7,0.691,0.736,0.918,2.03,1.09,0.78,0.744,1.21,1.57,1.52,1.89,1.58,10.3,6.62,50.9,6.48,0.833,1.63

# A different layout for some results above.
Compound | odorant receptor activation (OR8G5 clone 1493) | odorant receptor activation (OR8H1 clone 1388) | odorant receptor activation [1] | odorant receptor activation (OR8H3 P137S clone 1215) | odorant receptor activation (OR8I2 clone 1213) | odorant receptor activation (OR8J1 Y120C clone 1500) | odorant receptor activation (OR8J3 clone 1149) | odorant receptor activation (OR8K1 clone 1431) | odorant receptor activation (OR8K3 L122R clone 1195) | odorant receptor activation (OR8K5 clone 1150) | odorant receptor activation [2] | odorant receptor activation (OR8U1 clone 1242) | odorant receptor activation (OR8U8 clone 1499) | odorant receptor activation (OR8U9 clone 1439) | odorant receptor activation (OR9A2 clone 1080) | odorant receptor activation (OR9A4 clone 1081) | odorant receptor activation (OR9G1 clone 1111) | odorant receptor activation (OR9G4 N191D clone 1109) | odorant receptor activation (OR9G9 clone 1170) | odorant receptor activation (OR9I1 clone 1180)
C=CC(C)(O)CCC=C(C)C (stereo not given) [linalool] | 0.918 | 0.893 | 1.23 | 1.05 | 1.33 | 1.05 | 1.25 | 0.961 | 1.1 | 0.995 | 0.886 | 1.27 | 1.49 | 1.09 | 1.13 | 1.25 | 1.05 | 1.29 | 1.02 | 0.996
CC(C)C=O [isobutyraldehyde] | 1.28 and 1.52 | 0.77 | 1.03 | 0.991 | 1.34 | 0.968 and 0.955 | 0.959 | 0.964 | 0.909 | 1.11 | 0.971 and 1.08 | 1.18 and 1.36 | 0.527 and 1.58 | 0.842 | 0.652 | 8.35 | 1.77 | 0.387 | 1.22 | 1.04
